This is one part of the list.
These targets were tested with C[C@H](C1=CC=C(C=C1)C(=O)NC2=C3C=CNC3=NC=C2)N (assay: log2 fold change, soluble protein after heating vs DMSO (PISA); higher = thermal stabilisation; K562 lysate, 10 uM; active = over 0.2 and 3.5 SD of the protein, either way, in both replicates (recomputed)).
In short: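 Thermal stability, expressed as log-two fold change relative to solvent controls, is given from duplicates. Crude K562 extract in PBS pH 7.4 with 1 mM MgCl2, at 1 mg/mL protein, was treated with 10 μM compound for 30 min and heated in aliquots for 3 min across 48°C-58°C. After pooling, adjustment to 0.5% NP-40 at 4°C and centrifugation at 21,000xg for 90 min, supernatant protein was measured by TMTpro 16plex LC-MS/MS with channel sums equalised.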

The chains behind the UniProt entries cited, without tags or fusion partners. Where a name states a change or a piece, a line headed by the entry shows the natural chain unless it says otherwise.
UniProt Q9UKW4: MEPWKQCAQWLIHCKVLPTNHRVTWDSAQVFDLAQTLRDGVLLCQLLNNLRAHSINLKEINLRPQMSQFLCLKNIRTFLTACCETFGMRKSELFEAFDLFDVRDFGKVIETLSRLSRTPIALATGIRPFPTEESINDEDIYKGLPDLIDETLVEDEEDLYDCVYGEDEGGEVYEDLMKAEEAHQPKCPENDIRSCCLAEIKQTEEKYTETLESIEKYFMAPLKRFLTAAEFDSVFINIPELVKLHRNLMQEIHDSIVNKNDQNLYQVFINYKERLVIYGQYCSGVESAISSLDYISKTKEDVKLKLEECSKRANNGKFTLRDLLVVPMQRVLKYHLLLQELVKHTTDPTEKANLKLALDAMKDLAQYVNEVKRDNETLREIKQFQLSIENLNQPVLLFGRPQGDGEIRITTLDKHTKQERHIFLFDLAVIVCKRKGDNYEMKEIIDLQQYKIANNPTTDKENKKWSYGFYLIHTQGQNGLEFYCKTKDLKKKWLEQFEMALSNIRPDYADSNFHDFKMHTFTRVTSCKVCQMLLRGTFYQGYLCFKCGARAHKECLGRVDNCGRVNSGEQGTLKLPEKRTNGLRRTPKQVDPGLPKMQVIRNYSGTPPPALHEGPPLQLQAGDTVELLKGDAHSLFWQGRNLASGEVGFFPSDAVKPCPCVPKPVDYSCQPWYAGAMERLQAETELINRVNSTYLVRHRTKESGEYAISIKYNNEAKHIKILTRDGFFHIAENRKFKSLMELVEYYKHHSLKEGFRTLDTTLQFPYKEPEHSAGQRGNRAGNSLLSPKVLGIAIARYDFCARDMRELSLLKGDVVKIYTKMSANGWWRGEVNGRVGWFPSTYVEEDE
UniProt Q9HAU5: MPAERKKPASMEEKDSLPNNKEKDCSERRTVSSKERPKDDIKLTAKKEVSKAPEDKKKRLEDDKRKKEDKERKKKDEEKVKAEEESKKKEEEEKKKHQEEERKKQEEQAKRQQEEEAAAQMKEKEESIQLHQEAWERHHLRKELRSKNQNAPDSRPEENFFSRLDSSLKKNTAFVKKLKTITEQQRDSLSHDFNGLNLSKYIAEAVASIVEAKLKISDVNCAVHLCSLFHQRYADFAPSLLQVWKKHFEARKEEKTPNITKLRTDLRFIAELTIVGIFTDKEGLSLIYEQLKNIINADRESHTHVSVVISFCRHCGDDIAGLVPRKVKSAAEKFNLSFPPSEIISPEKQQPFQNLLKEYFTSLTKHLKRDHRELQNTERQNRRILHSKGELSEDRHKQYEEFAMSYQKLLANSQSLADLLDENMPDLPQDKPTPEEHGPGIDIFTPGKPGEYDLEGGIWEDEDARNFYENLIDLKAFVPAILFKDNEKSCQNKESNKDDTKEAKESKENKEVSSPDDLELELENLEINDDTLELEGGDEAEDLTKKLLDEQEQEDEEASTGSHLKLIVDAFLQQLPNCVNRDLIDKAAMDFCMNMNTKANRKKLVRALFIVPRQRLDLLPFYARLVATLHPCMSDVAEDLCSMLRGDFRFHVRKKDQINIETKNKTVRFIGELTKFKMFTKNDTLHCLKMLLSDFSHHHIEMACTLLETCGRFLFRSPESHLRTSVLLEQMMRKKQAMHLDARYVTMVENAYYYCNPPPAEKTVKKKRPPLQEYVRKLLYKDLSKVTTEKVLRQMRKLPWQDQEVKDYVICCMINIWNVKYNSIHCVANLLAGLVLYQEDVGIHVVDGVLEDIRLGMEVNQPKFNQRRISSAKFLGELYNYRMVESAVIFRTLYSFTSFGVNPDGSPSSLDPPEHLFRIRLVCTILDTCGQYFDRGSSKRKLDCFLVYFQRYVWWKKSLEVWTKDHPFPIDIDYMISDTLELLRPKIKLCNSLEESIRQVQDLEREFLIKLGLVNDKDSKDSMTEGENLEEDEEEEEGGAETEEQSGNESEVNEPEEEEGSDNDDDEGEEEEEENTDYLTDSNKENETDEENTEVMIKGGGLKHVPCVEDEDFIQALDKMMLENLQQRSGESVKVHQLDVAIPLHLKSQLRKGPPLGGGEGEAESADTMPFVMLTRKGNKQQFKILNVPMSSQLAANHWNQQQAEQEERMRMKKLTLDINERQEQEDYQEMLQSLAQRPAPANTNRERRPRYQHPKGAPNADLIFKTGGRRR
UniProt P45880: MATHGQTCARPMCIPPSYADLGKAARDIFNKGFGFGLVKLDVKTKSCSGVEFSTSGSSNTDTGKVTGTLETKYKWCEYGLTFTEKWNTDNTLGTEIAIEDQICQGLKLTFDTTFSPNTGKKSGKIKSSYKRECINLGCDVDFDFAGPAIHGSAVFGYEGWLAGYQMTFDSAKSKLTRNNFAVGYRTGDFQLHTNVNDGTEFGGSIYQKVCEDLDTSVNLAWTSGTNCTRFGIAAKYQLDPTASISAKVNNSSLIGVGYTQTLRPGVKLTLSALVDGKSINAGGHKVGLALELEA
UniProt O60701: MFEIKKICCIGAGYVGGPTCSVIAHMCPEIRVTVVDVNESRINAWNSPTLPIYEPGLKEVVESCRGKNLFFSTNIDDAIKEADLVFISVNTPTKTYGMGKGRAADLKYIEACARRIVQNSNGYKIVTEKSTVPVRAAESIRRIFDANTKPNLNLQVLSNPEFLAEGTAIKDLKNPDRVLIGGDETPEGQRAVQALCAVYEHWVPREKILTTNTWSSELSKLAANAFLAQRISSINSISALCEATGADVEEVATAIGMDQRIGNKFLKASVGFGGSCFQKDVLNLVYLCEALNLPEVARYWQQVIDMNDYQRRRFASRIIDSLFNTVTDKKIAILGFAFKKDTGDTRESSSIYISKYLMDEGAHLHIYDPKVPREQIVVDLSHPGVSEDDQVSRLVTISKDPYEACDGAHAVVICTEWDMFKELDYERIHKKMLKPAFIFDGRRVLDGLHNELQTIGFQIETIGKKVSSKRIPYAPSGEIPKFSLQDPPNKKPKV
UniProt Q9P0L0: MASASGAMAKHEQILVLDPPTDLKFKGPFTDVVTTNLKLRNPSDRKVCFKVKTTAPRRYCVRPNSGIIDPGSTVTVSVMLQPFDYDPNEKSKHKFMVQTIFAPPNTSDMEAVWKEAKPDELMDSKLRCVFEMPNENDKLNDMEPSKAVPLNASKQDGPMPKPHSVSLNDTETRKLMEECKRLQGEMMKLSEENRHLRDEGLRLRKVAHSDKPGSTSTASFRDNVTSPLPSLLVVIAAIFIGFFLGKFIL
UniProt Q8TAA9: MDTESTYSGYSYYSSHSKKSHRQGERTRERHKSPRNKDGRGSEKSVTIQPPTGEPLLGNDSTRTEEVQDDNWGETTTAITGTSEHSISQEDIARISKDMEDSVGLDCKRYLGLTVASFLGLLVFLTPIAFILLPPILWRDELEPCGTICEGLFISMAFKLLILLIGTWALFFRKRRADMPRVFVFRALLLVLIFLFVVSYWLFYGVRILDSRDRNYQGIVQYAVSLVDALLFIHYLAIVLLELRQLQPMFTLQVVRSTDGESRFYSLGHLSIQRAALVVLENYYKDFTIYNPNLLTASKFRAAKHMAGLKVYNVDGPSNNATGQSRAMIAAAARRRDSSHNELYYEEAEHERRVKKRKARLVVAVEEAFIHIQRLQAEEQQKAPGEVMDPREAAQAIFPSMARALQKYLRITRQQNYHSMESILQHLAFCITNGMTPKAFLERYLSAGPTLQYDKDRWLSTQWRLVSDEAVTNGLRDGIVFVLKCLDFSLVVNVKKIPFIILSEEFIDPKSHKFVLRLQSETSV
UniProt Q9Y4E8: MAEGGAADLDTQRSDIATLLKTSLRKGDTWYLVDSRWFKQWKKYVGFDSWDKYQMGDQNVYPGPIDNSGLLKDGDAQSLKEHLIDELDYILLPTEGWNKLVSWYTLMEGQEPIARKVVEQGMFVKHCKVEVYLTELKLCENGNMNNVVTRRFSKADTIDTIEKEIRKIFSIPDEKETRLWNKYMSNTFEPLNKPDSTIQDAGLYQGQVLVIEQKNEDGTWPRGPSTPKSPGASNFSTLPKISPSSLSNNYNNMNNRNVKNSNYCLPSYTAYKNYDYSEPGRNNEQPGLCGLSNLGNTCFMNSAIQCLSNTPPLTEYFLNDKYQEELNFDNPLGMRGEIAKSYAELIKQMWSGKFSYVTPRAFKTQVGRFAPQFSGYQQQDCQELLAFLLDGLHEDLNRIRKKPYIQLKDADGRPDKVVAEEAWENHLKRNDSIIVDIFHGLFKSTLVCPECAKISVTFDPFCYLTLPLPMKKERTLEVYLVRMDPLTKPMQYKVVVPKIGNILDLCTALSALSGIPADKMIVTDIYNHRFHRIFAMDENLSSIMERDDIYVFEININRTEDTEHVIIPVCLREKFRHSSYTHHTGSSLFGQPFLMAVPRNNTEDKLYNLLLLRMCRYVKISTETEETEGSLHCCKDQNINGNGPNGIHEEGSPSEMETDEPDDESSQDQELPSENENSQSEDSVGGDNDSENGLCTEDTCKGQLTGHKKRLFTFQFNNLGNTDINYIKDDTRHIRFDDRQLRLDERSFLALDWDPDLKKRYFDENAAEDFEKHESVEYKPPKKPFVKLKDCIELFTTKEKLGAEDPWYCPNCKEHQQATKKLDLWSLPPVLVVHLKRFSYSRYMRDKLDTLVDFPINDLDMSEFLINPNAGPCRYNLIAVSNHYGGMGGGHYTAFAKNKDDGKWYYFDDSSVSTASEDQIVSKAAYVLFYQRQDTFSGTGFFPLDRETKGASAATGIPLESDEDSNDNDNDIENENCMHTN
UniProt O14949: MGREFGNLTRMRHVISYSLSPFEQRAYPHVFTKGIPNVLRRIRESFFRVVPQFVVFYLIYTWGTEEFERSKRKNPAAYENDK
UniProt Q8IX04: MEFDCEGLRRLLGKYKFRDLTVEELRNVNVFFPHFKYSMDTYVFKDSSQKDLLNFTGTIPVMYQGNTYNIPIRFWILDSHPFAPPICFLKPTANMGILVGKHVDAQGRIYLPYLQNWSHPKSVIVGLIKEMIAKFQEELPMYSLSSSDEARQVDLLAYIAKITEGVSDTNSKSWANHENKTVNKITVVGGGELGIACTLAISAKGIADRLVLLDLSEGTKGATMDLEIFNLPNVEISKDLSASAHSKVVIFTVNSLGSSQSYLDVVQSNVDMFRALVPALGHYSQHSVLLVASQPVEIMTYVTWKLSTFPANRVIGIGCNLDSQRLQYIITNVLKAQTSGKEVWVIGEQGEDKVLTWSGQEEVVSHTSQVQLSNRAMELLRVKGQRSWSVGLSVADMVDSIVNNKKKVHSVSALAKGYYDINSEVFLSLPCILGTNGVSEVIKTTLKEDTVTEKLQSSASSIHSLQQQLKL
UniProt Q8TED0: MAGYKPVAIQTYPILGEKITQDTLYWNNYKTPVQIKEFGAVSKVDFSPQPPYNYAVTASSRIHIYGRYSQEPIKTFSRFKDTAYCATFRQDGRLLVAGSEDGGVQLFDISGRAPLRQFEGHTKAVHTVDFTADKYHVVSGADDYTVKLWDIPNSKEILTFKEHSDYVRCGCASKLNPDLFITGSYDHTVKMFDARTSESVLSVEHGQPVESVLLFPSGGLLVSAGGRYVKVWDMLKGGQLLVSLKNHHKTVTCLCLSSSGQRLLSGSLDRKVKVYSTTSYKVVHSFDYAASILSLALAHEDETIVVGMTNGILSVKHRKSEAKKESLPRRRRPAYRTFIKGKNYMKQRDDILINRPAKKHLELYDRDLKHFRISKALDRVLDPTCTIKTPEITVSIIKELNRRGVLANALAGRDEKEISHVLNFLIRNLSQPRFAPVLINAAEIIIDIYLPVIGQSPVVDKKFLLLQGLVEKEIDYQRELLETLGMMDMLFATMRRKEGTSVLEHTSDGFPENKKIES
UniProt P09327: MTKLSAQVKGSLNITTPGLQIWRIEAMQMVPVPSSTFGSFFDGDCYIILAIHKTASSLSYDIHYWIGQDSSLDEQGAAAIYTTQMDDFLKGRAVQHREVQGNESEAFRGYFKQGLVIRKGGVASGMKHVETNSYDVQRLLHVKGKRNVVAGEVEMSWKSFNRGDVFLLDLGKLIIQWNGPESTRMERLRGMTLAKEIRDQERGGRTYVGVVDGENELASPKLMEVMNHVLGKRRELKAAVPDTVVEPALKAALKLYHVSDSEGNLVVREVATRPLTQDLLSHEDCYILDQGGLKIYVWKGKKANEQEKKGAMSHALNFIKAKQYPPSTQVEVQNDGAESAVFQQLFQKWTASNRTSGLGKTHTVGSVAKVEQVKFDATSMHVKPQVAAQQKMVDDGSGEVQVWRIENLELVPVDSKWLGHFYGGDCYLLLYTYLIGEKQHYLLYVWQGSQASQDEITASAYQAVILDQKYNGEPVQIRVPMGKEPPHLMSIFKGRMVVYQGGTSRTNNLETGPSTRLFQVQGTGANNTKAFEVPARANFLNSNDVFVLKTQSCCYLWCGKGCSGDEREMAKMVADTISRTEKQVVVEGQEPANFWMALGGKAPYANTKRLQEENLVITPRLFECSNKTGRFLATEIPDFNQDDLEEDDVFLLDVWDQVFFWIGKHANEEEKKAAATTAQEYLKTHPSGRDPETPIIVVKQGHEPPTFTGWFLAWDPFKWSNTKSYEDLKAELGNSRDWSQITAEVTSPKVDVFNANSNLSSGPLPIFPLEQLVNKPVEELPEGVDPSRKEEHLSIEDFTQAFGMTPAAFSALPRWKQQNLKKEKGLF

log2 fold change, active:
VAV3 isoform 4 (UniProt Q9UKW4) -0.655

log2 fold change, inactive:
UPF2 (UniProt Q9HAU5) -0.026
VDAC2 isoform 2 (UniProt P45880) -0.034
USP10 isoform 2 (UniProt Q14694) -0.024
VCX3B (UniProt Q9H321) -0.045
UFL1 (UniProt O94874) 0.025
USP48 isoform 8 (UniProt Q86UV5) -0.006
UPF3B (UniProt Q9BZI7) -0.171
UGDH (UniProt O60701) 0.037
USP8 (UniProt P40818) 0.002
UFD1 isoform 1 (UniProt Q92890) -0.031
VAPA (UniProt Q9P0L0) 0.184
VAC14 (UniProt Q08AM6) -0.028
USP25 (UniProt Q9UHP3) 0.019
VAMP7 (UniProt P51809) -0.06
UHRF1BP1L (UniProt A0JNW5) 0.002
VANGL1 (UniProt Q8TAA9) 0.07
VDAC1 (UniProt P21796) -0.018
VARS2, A0A0G2JL52 -0.125
USP15 (UniProt Q9Y4E8) 0.026
UQCRQ (UniProt O14949) 0.159
VAMP8 (UniProt Q9BV40) 0.033
UGGT1 (UniProt Q9NYU2) -0.026
VCL (UniProt P18206) -0.094
UXT isoform 2 (UniProt Q9UBK9) -0.018
UEVLD (UniProt Q8IX04) -0.045
UTP6 (UniProt Q9NYH9) -0.144
USF1 (UniProt P22415) -0.03
UTP15 (UniProt Q8TED0) -0.098
USP39 (UniProt Q53GS9) 0
UQCC1 (UniProt Q9NVA1) 0.004
VIL1 (UniProt P09327) 0.079

Two records drawn at random from the list so far:
log2 fold change, inactive:
VARS2, A0A0G2JL52 -0.125
UXT isoform 2 (UniProt Q9UBK9) -0.018

Reference: the supplement of paper PMC10849652
